Measured values published in article PMC12037730 (Nature Communications, 2025).
Results are given in words; binding and its absence hold for the method and conditions named. In cells and extracts the contact can be indirect. Binding calls can cover weak binding; strength is not graded here.

Amino acid sequences for entries named in this document (tags omitted). A change or cut given only in a name is not applied to a line headed by its entry.
UniProt P11908: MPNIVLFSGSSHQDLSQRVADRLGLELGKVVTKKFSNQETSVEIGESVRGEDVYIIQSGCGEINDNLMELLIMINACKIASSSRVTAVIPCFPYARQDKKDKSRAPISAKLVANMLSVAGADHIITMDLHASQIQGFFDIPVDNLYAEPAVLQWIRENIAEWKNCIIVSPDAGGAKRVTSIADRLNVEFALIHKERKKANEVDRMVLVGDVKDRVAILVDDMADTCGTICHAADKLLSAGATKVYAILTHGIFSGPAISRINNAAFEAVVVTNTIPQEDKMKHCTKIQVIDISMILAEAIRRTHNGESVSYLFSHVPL
UniProt P31153: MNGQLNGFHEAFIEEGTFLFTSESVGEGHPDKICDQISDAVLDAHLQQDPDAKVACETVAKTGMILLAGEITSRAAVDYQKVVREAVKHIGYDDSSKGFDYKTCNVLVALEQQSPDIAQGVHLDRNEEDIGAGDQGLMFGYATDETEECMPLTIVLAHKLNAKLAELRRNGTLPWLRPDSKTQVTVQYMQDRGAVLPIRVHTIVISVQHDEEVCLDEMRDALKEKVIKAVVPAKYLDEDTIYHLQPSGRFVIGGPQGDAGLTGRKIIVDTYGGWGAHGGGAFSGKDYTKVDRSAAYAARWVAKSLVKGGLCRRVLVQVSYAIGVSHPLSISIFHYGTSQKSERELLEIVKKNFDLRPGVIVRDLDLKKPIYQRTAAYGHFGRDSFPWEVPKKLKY

Target: endogenous PRPS2 (human (endogenous in PC9 and H1792)) (UniProt P11908)
Assay: co-IP; endogenous proteins in PC9 and H1792 whole-cell extracts; anti-PRPS2 or normal rabbit IgG overnight, Protein G Plus/Protein A-Agarose; Western blot

- binding: binds
Substance: endogenous MAT2A (methionine adenosyltransferase 2A) (from UniProt P31153 1-395) (enzyme)
